Test results as given in publication PMC7819943, “Rice protein-binding microarrays: a tool to detect cis-acting elements near promoter regions in rice”.
The list shows a part of the results.

By UniProt entry, the sequences of proteins in these tests, tags left out.
UniProt Q0JBA9, entry or part of it: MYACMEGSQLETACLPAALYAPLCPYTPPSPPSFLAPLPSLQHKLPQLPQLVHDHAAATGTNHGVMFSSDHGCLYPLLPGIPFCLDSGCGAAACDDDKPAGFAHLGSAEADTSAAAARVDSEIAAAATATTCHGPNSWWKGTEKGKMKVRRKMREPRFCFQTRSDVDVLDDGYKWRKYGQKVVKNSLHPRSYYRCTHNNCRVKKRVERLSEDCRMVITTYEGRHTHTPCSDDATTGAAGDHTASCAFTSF

These sequences were tested against OsWRKY34 (Oryza sativa, UniProt Q0JBA9 1-250) (assay: protein-binding microarray (RPBM); PBS, 2% BSA, 51.3 ng/ul salmon testes DNA, 50 uM zinc acetate, 200 nM TF, 25 C, 1 h; high values mean tight binding). Conditions: protein: recombinant; tags: N-terminal polyhistidine and DsRed monomer fusion (pET32a); label: CyDye5-dUTP incorporated in the synthesized complementary strand; 3' TTTTT single-stranded linker to array surface; dsDNA, one strand shown.
In short: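 Binding signal is reported as fluorescence intensity per feature (arbitrary units) from an Axon 4000B scanner. Incubation used 200 nM of each Ni–NTA-purified, N-terminally polyhistidine- and DsRed-fused transcription factor from E. coli BL21-CodonPlus on a double-stranded custom Agilent array for 1 h at 25 °C, with 50 µM zinc acetate in the buffer, followed by washing.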
With “CTTGATTCCCTGCAGATTTCCATGCGCAGCCAGCATCTTGCGGAGTCACCTAGTGCAG” the binding signal was 8230 fluorescence intensity (a.u.).
In the case of “GAGGGTCTCGGTGACGGCGGCGACGGAAGCGGGGTCGGGGCGGAGTCACCTAGTGCAG”, the binding signal is reported as 8740 fluorescence intensity (a.u.).
“CAAAGGTTCTAATGTTTGACCTCATTCTTATCTAAAACGACGGAGTCACCTAGTGCAG” was tested, and the binding signal was 9440 fluorescence intensity (a.u.).
For “CATCTGACGTCTTTGCTCCACCTGGTTCTTAATGACATTTCGGAGTCACCTAGTGCAG”, the binding signal was 9630 fluorescence intensity (a.u.).
For “TGATTCTTCAGCTGTGTTAGGATTATTTACCTTTCACATACGGAGTCACCTAGTGCAG”, the binding signal was 8690 fluorescence intensity (a.u.).
In the case of “CTCTCATTTAGCTTTGCCTATTTGTGCCGCCATAGATCTACGGAGTCACCTAGTGCAG”, the binding signal is reported as 8130 fluorescence intensity (a.u.).
“AGTAATTTGTTAATCCTCTGTTTCATTTTTGCTTAGGGATCGGAGTCACCTAGTGCAG” was tested, and the binding signal was 10200 fluorescence intensity (a.u.).
With “CGCGCGCCGCGCGCGGCTGCGTTGGTTTTGGGGTTTTGGACGGAGTCACCTAGTGCAG” the binding signal was 10600 fluorescence intensity (a.u.).
With “GTGCAAACTAGGTCCCTCAGCAGTTTTGACTCCGGTTTTACGGAGTCACCTAGTGCAG” the binding signal was 9160 fluorescence intensity (a.u.).
For “GTTGAGCTACGCTCACTTTGCAATATACTACCTCTATTTCCGGAGTCACCTAGTGCAG”, the binding signal was 8290 fluorescence intensity (a.u.).
“ACGCCCGCTTGATCCGCCTGCTGCGCGCGCGCGAGTTTTTCGGAGTCACCTAGTGCAG” was tested, and the binding signal was 9160 fluorescence intensity (a.u.).
For “GTATAGGGGAGAGGGTGGGCGGGTGATCACTGGGTGGGTGCGGAGTCACCTAGTGCAG”, the binding signal was 12200 fluorescence intensity (a.u.).
“GCTAATAAACTGGCCTGTAACCCGCGCATTTCGCACCCATCGGAGTCACCTAGTGCAG” was tested, and the binding signal was 8790 fluorescence intensity (a.u.).
For “AAACAGACCCTTAATATGCTATATTTGTCTCCAATAAAACCGGAGTCACCTAGTGCAG”, the binding signal was 8480 fluorescence intensity (a.u.).
“GCGCCGGCCTCGTCAATCCCATCGATCGATCTCGCCGTCGCGGAGTCACCTAGTGCAG” was tested, and the binding signal was 9780 fluorescence intensity (a.u.).
For “AGTTACCTTTGTTTTTGTTCTAAGTTACTTCTATAATATACGGAGTCACCTAGTGCAG”, the binding signal was 9850 fluorescence intensity (a.u.).
With “CTGTTTGTCTATCTTCTTCTTGCCTTGGCAACAACAAAATCGGAGTCACCTAGTGCAG” the binding signal was 8770 fluorescence intensity (a.u.).
“TTTTCTTTTTCTACTGGAGTCGGACACGAGATGTTTTTTTCGGAGTCACCTAGTGCAG” was tested, and the binding signal was 8390 fluorescence intensity (a.u.).
In the case of “GAAGGCATTTTTATTGTCATCCTAGTATATCACATATCATCGGAGTCACCTAGTGCAG”, the binding signal is reported as 8030 fluorescence intensity (a.u.).
With “ATAGCTACCAAATTTCCTGTGTTGACCATTGACAATTTTCCGGAGTCACCTAGTGCAG” the binding signal was 10100 fluorescence intensity (a.u.).
With “TGACTTGTTGTAGACGCGTGACGTGGCTTGGCTTATTTTTCGGAGTCACCTAGTGCAG” the binding signal was 8900 fluorescence intensity (a.u.).
“CAGTTTTGTTGTCATGCCATCTTATCATGTCCTTTAAATTCGGAGTCACCTAGTGCAG” was tested, and the binding signal was 14400 fluorescence intensity (a.u.).
In the case of “CATCTCCGTCCGCCGGCGTGCTCCTCGCCCCGCATCAGCTCGGAGTCACCTAGTGCAG”, the binding signal is reported as 8750 fluorescence intensity (a.u.).
